Record: PubChem BioAssay AID720505 (Drosophila RNAi Screening Center, 2013)

- Screen: 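Knock-downs that reduce calcium influx once internal stores are emptied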 (primary screen)
- System: Drosophila S2R+ cells
- Reagent: long dsRNA against Drosophila genes
- Conditions: thapsigargin (2 µM) in calcium-free buffer to empty internal stores, then 2 mM calcium added back
- Read-out: 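Fluo-4 signal in 384-well plates read on a FLIPR after thapsigargin (2 µM, calcium-free) store depletion and 2 mM calcium add-back; unnormalised mean endpoint per well; screen run twice, selected wells retested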
- Reading the numbers: calcium signal: higher = more calcium entry after store depletion
- Hit rule: 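Knock-downs counted as hits when calcium entry dropped relative to STIM1 positive and Rho1 negative controls present on each plate; roughly 1500 genes called, with reductions of differing size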
- Calls: active = called as lowering calcium entry; inactive = not called
In all, the deposit lists about 20,000 reagents; below is a random part of those that have a named target and a result. Over the whole deposit, about 2,100 (10%) were called active. 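Raw plate signals without normalisation; calls rest on control-based scores that were not deposited; replicate 2 separates called from uncalled poorly.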 Unmarked entries are inactive. Not given: the amount of reagent, the time to read-out.

predicted target	DRSC id	calcium signal, replicate 1	calcium signal, replicate 2
Mpi (Mannose phosphate isomerase)	DRSC16417	140	118
MED16 (Mediator complex subunit 16)	DRSC04506	44.6	150
dpr17 (defective proboscis extension response 17)	DRSC14957	95.8	84.8
dpr17 (defective proboscis extension response 17)	DRSC14958	67.6 (active)	83.7
grk (gurken)	DRSC03540	139	211
CG5762	DRSC15869	204	225
Prosalpha6 (Proteasome alpha6 subunit)	DRSC03401	117 (active)	96.8
CG3534	DRSC15494	142	102
Pi3K92E (Phosphatidylinositol 3-kinase 92E)	DRSC16788	155	214
CG15394	DRSC00408	175	143
CG9008	DRSC01889	71.8	130
Grip91 (Gamma-tubulin ring protein 91)	DRSC20249	151	127
Prip	DRSC07044	182	145
CG14834	DRSC10204	75.9	65.8
PyK (Pyruvate kinase)	DRSC16806	191	165
Mob3 (MOB kinase activator 3)	DRSC02791	131	147
rut (rutabaga)	DRSC20367	90.9	136
rut (rutabaga)	DRSC22976	96.4	68.8
Gyc89Da (Guanylyl cyclase at 89Da)	DRSC15008	135	175
CG31230	DRSC22130	107	103
PolI (DNA polymerase iota)	DRSC16267	119	125
CG14180 (retired record)	DRSC10179	78.8 (active)	30.3
Ir56b (Ionotropic receptor 56b)	DRSC06543	186	159
Atg10 (Autophagy-related 10)	DRSC06172	62.9 (active)	77.1
CG40948 (retired record)	DRSC20944	97	9818
Polr3I (RNA polymerase III subunit I)	DRSC19922	94	80.5
CG16896	DRSC04284	204	79.5
CG13801	DRSC08335	90.3	89
Cyp6a14 (Cytochrome P450 6a14)	DRSC07376	146	124
CG13053	DRSC09934	78.1	110
Ugt302K1 (UDP-glycosyltransferase family 302 member K1)	DRSC16086	68.7 (active)	81.9
Sgsh (N-sulfoglucosamine sulfohydrolase)	DRSC14771	125	76.8
betaCOP (Coat Protein (coatomer) beta)	DRSC20312	123	115
CG3770	DRSC04416	94.2	98.9

Ordered by “calcium signal, replicate 1” (highest first): some entries from above
predicted target	DRSC id	calcium signal, replicate 1	calcium signal, replicate 2
Prip	DRSC07044	182	145
Grip91 (Gamma-tubulin ring protein 91)	DRSC20249	151	127
